The source of these data is the supplement of paper PMC12067093, “Discovery and optimisation of a covalent ligand for TRIM25 and its application to targeted protein ubiquitination” (Chemical Science, 2025).

By UniProt entry, the sequences of proteins in these tests, tags left out. Where a name states a change or a piece, a line headed by the entry shows the natural chain unless it says otherwise.
UniProt Q96EB6: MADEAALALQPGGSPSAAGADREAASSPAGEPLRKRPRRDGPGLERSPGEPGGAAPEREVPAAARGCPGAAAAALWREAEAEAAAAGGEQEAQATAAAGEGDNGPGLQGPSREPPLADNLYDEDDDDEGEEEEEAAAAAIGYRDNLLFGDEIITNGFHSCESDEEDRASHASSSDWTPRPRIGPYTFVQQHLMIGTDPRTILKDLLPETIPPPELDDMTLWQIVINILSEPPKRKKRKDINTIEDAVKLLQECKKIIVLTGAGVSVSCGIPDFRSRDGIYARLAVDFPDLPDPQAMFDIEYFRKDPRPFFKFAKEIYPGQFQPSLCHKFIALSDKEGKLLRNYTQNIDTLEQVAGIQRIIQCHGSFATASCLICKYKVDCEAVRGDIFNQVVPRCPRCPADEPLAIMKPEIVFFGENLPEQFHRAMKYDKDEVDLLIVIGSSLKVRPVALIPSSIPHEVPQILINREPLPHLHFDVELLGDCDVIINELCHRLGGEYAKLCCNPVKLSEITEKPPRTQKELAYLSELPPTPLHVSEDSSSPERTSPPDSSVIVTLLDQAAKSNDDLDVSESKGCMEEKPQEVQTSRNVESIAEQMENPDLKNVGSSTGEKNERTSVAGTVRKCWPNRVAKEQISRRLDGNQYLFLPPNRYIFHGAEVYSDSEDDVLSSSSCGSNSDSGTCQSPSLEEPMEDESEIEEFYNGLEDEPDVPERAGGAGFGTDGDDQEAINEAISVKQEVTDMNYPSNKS
UniProt Q99719: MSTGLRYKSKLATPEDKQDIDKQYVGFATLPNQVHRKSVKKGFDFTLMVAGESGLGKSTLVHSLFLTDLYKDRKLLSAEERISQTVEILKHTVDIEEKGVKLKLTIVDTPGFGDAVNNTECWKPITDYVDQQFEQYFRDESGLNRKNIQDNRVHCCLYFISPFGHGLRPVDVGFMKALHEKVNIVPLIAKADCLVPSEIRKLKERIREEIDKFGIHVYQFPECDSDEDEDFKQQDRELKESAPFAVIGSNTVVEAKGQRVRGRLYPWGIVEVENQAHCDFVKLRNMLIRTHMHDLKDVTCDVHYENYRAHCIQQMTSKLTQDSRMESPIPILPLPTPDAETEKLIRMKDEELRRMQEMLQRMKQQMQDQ
UniProt Q9UHJ6: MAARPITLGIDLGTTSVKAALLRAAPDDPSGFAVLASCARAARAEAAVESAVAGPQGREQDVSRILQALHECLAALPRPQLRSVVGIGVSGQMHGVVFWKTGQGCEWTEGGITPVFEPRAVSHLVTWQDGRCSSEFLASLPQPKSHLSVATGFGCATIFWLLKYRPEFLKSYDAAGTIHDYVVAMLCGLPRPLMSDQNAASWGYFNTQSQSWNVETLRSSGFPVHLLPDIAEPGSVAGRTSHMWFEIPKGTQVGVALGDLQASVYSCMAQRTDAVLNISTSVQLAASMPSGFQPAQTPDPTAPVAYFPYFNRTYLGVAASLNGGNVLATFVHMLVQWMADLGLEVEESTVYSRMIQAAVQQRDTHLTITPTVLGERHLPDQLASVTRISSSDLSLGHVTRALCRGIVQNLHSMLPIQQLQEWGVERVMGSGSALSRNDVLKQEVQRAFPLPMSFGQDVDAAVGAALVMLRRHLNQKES
UniProt P34897: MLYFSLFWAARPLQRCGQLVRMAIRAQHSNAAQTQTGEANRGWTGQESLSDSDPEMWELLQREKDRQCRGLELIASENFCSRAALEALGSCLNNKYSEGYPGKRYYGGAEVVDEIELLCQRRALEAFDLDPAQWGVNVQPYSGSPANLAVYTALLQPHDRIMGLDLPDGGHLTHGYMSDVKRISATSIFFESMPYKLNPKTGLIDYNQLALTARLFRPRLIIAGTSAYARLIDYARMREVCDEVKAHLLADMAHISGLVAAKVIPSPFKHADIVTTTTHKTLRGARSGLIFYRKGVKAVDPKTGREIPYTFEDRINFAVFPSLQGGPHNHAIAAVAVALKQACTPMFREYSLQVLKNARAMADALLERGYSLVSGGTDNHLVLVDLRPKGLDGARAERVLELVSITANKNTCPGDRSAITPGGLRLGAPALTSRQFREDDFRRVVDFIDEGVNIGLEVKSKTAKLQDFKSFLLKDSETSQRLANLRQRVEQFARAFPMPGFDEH
UniProt P50453: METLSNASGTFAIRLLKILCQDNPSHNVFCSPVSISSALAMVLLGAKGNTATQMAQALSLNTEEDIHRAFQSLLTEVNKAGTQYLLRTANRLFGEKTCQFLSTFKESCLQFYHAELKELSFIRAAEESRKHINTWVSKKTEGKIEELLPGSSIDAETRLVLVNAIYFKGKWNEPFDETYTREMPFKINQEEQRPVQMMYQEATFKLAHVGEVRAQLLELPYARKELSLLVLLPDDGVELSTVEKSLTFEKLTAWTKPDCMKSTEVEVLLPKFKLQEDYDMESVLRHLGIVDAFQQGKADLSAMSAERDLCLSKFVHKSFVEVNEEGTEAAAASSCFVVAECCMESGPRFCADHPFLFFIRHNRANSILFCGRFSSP
UniProt Q99961: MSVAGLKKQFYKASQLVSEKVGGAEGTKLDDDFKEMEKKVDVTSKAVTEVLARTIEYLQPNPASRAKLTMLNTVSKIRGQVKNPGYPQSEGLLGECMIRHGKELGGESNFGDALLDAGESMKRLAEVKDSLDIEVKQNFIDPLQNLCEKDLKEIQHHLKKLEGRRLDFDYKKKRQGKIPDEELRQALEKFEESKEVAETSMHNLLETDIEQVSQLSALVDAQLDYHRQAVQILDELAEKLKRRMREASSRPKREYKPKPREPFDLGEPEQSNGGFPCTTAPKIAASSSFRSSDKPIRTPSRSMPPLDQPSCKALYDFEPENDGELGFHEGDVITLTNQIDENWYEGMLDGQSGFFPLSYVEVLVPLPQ
UniProt Q9HC21: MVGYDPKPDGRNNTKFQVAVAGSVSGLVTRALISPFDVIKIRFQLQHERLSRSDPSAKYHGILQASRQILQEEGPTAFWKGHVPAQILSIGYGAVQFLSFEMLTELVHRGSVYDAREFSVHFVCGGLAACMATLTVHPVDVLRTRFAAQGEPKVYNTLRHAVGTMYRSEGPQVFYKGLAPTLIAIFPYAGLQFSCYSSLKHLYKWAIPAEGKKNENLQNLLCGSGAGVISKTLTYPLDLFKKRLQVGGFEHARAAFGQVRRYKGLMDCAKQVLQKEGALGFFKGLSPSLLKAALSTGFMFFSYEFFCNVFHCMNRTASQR
UniProt Q92599: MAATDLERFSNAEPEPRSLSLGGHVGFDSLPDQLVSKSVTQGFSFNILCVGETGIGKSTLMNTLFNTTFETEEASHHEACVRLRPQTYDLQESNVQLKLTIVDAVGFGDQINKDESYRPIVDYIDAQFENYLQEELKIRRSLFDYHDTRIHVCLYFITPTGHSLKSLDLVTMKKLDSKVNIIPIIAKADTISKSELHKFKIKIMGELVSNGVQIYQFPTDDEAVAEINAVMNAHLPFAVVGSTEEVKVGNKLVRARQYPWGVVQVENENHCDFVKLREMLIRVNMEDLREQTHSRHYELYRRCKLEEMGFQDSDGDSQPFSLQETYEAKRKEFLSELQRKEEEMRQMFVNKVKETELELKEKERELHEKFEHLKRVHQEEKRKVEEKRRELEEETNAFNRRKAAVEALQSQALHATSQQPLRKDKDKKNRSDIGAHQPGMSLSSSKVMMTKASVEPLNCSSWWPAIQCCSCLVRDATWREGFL
UniProt Q562F6: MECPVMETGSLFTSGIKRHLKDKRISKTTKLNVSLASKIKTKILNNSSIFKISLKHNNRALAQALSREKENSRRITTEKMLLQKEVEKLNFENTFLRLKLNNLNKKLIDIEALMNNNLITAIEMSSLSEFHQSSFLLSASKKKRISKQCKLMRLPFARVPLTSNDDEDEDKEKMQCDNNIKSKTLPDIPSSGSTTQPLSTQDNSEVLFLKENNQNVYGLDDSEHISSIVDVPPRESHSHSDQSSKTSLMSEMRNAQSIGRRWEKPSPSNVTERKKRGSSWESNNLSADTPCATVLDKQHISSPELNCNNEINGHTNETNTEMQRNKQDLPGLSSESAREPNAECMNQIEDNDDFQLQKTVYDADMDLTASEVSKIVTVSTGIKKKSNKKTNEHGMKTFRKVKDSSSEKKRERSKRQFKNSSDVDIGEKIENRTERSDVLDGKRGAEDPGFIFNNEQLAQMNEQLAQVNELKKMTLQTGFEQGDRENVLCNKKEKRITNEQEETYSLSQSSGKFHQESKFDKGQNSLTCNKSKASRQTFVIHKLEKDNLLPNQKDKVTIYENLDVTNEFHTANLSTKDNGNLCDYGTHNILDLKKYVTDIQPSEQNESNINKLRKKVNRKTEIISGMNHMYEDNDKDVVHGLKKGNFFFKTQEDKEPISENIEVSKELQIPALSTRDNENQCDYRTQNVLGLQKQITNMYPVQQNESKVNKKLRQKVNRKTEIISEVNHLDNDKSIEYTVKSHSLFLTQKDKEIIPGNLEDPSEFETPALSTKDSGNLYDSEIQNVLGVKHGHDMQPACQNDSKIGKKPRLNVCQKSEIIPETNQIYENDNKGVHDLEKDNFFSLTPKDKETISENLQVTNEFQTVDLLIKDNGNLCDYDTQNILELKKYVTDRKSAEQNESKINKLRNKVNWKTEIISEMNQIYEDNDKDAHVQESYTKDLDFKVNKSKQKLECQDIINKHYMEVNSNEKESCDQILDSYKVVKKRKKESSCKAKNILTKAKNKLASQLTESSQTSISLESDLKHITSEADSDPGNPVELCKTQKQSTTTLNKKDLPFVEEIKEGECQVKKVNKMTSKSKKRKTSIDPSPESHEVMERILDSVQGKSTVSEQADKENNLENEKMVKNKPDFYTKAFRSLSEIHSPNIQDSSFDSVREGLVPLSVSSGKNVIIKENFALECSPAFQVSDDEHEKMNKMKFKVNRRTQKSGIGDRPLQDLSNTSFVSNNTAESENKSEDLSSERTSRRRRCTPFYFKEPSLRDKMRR
UniProt O75746: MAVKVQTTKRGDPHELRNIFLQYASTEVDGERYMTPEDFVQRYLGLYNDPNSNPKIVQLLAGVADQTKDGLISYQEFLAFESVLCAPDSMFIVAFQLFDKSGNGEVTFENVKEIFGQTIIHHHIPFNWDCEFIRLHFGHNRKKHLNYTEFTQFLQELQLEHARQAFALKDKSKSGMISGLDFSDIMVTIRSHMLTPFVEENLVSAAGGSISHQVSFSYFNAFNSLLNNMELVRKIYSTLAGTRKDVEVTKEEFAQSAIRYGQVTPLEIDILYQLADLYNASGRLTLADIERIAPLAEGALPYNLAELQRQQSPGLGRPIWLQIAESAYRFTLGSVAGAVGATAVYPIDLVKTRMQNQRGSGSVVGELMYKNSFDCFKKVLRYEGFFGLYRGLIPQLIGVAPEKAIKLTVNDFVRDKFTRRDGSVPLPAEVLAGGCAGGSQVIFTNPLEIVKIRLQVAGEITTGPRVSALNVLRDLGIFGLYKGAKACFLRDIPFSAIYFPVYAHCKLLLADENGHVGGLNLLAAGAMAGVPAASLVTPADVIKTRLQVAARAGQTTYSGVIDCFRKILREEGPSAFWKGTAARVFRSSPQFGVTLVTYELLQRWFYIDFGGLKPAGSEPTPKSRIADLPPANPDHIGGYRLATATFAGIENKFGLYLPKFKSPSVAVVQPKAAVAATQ
UniProt Q14141: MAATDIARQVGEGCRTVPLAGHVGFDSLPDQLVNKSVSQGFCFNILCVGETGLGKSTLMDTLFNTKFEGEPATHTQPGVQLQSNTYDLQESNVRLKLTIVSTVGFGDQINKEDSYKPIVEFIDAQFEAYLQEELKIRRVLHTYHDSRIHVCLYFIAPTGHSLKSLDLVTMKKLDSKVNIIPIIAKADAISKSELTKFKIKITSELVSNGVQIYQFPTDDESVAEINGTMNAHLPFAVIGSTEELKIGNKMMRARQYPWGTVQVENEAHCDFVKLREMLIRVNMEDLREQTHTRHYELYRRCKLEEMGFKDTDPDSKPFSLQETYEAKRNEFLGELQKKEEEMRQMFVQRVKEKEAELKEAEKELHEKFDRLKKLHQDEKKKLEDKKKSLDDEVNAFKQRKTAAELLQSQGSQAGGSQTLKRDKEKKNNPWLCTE
UniProt P34896: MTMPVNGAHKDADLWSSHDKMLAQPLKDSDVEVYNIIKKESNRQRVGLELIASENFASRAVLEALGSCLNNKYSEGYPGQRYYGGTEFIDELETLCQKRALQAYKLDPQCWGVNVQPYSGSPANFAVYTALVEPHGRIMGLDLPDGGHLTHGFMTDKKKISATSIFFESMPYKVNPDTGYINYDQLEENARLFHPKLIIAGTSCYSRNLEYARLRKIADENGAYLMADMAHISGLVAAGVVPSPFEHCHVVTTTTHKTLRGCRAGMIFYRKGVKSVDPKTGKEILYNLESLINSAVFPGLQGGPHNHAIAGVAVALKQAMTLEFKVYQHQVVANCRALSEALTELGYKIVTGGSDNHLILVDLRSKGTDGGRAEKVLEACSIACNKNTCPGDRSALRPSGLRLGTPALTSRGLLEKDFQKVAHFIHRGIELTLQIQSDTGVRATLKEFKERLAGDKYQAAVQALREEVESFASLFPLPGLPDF

The list shows a part of the results.
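Also: competitive chemoproteomic profiling in live THP-1 cells with an iodoacetamide desthiobiotin (IA-DTB) probe, comparing probe-labelled peptide intensities in compound-treated cells against DMSO-treated controls.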

Compound in one test: CC1Cc2ccccc2N1C(=O)C1CCCN(C1)C(=O)CCl (mixture of isomers) [TRIM25 ligand 11 (diastereomer mixture)]
Nature of the test: probe-labelled cysteine peptide fold change vs DMSO (competition) (log2 fold change); higher = less target engagement (more negative = stronger competition). The following applies: 10 µM; THP-1; incubation time: 4 h.
Turning to “SIRT1_Q96EB6_398_CPADEPLAIMKPEIVFFGENLPEQFHR (UniProt Q96EB6)”, the “probe-labelled cysteine peptide fold change” value is -0.0824.

For “SEPT5_Q99719_278_LYPWGIVEVENQAHCDFVK (UniProt Q99719)”, the “probe-labelled cysteine peptide fold change” value came to 0.19.

For the target “SHC1_P29353_574_FESVSHLISYHMDNHLPIISAGSELCLQQPVER (UniProt P29353)”, the “probe-labelled cysteine peptide fold change” value turned out to be 0.226.

For “SHPK_Q9UHJ6_187_SYDAAGTIHDYVVAMLCGLPR (UniProt Q9UHJ6)”, the “probe-labelled cysteine peptide fold change” value was 0.148.

With “SLAIN2_Q9P270_152_SVSPLVWCR (UniProt Q9P270)”, the “probe-labelled cysteine peptide fold change” value is -0.284.

Regarding “SHMT2_P34897_80_GLELIASENFCSR (UniProt P34897)”, the “probe-labelled cysteine peptide fold change” value was 0.148.

Still in this test, the particulars now being: 50 µM; THP-1; incubation time: 4 h.
With “SIAE_Q9HAT2_367_MPNTFMAVAMDLCDRDSPFGSIHPR (UniProt Q9HAT2)”, the “probe-labelled cysteine peptide fold change” value is -0.565.

For the target “SERPINB8_P50452_98_TCDFLPDFK (UniProt P50452)”, the “probe-labelled cysteine peptide fold change” value was -0.162.

For “SERPINB9_P50453_259_LTAWTKPDCMK (UniProt P50453)”, the “probe-labelled cysteine peptide fold change” value amounted to 0.00481.

Consider “SERGEF_Q9UGK8_73_ITGGGGHSAVVTDGGDLFVCGLNK (UniProt Q9UGK8)”, for which the “probe-labelled cysteine peptide fold change” value was -0.118.

As for “SKIV2L_Q15477_913_LFLPEGPCDHTVVK (UniProt Q15477)”, the “probe-labelled cysteine peptide fold change” value was determined as 0.0639.

With “SLC19A1_P41440_220_CETSASELER (UniProt P41440)”, the “probe-labelled cysteine peptide fold change” value was -0.108.

“SH3GL1_Q99961_277_EPFDLGEPEQSNGGFPCTTAPK (UniProt Q99961)”: the “probe-labelled cysteine peptide fold change” value was -0.144.

As for “SETX_Q7Z333_884_NEELVIFSFHENNCK (UniProt Q7Z333)”, the “probe-labelled cysteine peptide fold change” value is -0.287.

Regarding “SETDB1_Q15047_781_RLEECLPTGVYECNKR (UniProt Q15047)”, the “probe-labelled cysteine peptide fold change” value is -0.00361.

In the case of “SIK3_Q9Y2K2_290_IPFFMSTECEHLIR (UniProt Q9Y2K2)”, the “probe-labelled cysteine peptide fold change” value is -0.0384.

For the target “SHMT2_P34897_119_RYYGGAEVVDEIELLCQR (UniProt P34897)”, the “probe-labelled cysteine peptide fold change” value is 0.145.

For “SETDB1_Q15047_582_LFYLPHVCSYTCLSR (UniProt Q15047)”, the “probe-labelled cysteine peptide fold change” value is -0.048.

“SETDB1_Q15047_1207_QFYDGEESCYIIDAK (UniProt Q15047)”: the “probe-labelled cysteine peptide fold change” value was -0.0706.

With “SERPINF2_P08697_152_LCQDLGPGAFR (UniProt P08697)”, the “probe-labelled cysteine peptide fold change” value was 0.7.

As for “SLC25A19_Q9HC21_222_KNENLQNLLCGSGAGVISK (UniProt Q9HC21)”, the “probe-labelled cysteine peptide fold change” value is -0.138.

For the target “SF3B2_Q13435_661_IPGLNSPIPESCSFGYHAGGWGKPPVDETGK (UniProt Q13435)”, the “probe-labelled cysteine peptide fold change” value was -0.0619.

Consider “SEPT9_Q9UHD8_410+411_VHCCLYFIPATGHSLRPLDIEFMK (UniProt Q9UHD8)”, for which the “probe-labelled cysteine peptide fold change” value turned out to be 0.122.

Take “SLC1A5_Q15758_39_GLAAAEPTANGGLALASIEDQGAAAGGYCGSR (UniProt Q15758)”: the “probe-labelled cysteine peptide fold change” value was -0.199.

As to “SH3KBP1_Q96B97_301_DCIDVGWWEGELNGRR (UniProt Q96B97)”, the “probe-labelled cysteine peptide fold change” value is -0.063.

In the case of “SETD2_Q9BYW2_1241_TELSFSSSCEIPHVDGLHSSEELR (UniProt Q9BYW2)”, the “probe-labelled cysteine peptide fold change” value was -0.416.

Turning to “SEPT8_Q92599_80_STLMNTLFNTTFETEEASHHEACVR (UniProt Q92599)”, the “probe-labelled cysteine peptide fold change” value was -0.0644.

Turning to “SIN3A_Q96ST3_1063_KAEQLMSDENCFK (UniProt Q96ST3)”, the “probe-labelled cysteine peptide fold change” value was 0.0248.

Regarding “SGO2_Q562F6_681_DNENQCDYR (UniProt Q562F6)”, the “probe-labelled cysteine peptide fold change” value was -0.011.

Consider “SLC25A12_O75746_563_AGQTTYSGVIDCFR (UniProt O75746)”, for which the “probe-labelled cysteine peptide fold change” value was determined as 0.00781.

With “SEPT6_Q14141_47_SVSQGFCFNILCVGETGLGK (UniProt Q14141)”, the “probe-labelled cysteine peptide fold change” value is 0.185.

Turning to “SERBP1_Q8NC51_11_PGHLQEGFGCVVTNR (UniProt Q8NC51)”, the “probe-labelled cysteine peptide fold change” value was -0.191.

Consider “SLC25A12_O75746_130_EIFGQTIIHHHIPFNWDCEFIR (UniProt O75746)”, for which the “probe-labelled cysteine peptide fold change” value was found to be 0.129.

For “SHMT1_P34896_335_VYQHQVVANCR (UniProt P34896)”, the “probe-labelled cysteine peptide fold change” value came to 0.112.

On to “SEPT6_Q14141_42+47_SVSQGFCFNILCVGETGLGK (UniProt Q14141)”, for which the “probe-labelled cysteine peptide fold change” value is 0.0658.

“SF1_Q15637_292_CGGAGHIASDCK (UniProt Q15637)”: the “probe-labelled cysteine peptide fold change” value was found to be 0.0404.

Turning to “SLC25A1_P53007_262_NTWDCGLQILK (UniProt P53007)”, the “probe-labelled cysteine peptide fold change” value was 0.157.

Take “SIRT1_Q96EB6_398_CPADEPLAIMKPEIVFFGENLPEQFHR (UniProt Q96EB6)”: the “probe-labelled cysteine peptide fold change” value was -0.129.

For “SEPT5_Q99719_278_LYPWGIVEVENQAHCDFVK (UniProt Q99719)”, the “probe-labelled cysteine peptide fold change” value is 0.194.

Take “SHC1_P29353_574_FESVSHLISYHMDNHLPIISAGSELCLQQPVER (UniProt P29353)”: the “probe-labelled cysteine peptide fold change” value was -0.0831.

“SHPK_Q9UHJ6_187_SYDAAGTIHDYVVAMLCGLPR (UniProt Q9UHJ6)”: the “probe-labelled cysteine peptide fold change” value came to 0.0926.

Regarding “SLAIN2_Q9P270_152_SVSPLVWCR (UniProt Q9P270)”, the “probe-labelled cysteine peptide fold change” value was -0.326.

On to “SHMT2_P34897_80_GLELIASENFCSR (UniProt P34897)”, for which the “probe-labelled cysteine peptide fold change” value came out at 0.179.
